# In the supplement of paper PMC12819154, “High-throughput peptide-centric local stability assay extends protein–ligand identification to membrane proteins, tissues and bacteria” (Nature Structural & Molecular Biology, 2025):
# Amino acid sequences for entries named in this document (tags omitted). A change or cut given only in a name is not applied to a line headed by its entry.
# UniProt O14519: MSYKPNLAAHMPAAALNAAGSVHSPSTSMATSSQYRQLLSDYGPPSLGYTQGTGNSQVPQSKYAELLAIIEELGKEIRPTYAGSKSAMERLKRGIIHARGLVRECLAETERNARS
# UniProt O00273: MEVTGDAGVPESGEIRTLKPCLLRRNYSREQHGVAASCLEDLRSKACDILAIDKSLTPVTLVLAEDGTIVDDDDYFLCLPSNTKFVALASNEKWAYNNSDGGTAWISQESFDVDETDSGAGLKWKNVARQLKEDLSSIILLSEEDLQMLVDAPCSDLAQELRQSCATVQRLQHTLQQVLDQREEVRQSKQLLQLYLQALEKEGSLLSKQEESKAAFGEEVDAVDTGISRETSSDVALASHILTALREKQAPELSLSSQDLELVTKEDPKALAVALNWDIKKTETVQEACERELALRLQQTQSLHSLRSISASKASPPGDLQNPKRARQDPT
# UniProt H3BQB6: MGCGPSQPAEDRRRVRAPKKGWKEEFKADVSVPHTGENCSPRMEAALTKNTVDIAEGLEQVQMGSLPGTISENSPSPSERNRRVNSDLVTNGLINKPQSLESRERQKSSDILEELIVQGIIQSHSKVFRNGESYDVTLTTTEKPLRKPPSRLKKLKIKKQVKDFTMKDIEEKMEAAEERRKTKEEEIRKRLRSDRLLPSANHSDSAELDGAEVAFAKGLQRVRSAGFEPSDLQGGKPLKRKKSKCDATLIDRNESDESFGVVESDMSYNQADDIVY
# UniProt O15479: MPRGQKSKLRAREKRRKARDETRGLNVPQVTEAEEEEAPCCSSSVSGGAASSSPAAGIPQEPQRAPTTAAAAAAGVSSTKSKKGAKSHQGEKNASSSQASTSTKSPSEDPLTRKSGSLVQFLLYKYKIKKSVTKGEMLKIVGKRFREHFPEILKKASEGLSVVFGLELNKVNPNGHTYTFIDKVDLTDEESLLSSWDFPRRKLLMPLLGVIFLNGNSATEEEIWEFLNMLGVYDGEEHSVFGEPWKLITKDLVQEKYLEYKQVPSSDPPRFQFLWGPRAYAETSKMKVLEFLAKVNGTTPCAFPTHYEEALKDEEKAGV
# UniProt O00244: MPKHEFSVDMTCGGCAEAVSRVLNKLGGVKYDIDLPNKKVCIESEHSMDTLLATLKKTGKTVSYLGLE
# UniProt B7Z6K7: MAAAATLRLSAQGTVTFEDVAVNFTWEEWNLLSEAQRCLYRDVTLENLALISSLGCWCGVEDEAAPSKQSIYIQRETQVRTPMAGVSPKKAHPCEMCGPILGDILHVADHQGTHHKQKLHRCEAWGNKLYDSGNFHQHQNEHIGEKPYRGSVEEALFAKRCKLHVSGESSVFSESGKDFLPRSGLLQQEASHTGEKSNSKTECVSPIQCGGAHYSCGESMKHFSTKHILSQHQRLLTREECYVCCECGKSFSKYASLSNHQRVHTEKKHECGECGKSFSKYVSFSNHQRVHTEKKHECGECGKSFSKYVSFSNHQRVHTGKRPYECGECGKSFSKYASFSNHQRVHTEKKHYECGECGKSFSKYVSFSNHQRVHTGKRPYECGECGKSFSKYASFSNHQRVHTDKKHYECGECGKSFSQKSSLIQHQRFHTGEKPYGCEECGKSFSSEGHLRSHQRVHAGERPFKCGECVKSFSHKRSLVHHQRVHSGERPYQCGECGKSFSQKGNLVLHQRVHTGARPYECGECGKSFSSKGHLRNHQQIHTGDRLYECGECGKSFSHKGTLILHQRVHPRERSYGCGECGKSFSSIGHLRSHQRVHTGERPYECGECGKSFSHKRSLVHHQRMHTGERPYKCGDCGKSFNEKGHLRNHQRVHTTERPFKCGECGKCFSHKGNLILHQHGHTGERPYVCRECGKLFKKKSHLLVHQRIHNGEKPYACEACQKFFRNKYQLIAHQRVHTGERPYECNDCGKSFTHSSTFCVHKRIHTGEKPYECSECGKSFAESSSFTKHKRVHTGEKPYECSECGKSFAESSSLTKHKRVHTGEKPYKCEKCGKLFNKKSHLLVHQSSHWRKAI
# UniProt O14529: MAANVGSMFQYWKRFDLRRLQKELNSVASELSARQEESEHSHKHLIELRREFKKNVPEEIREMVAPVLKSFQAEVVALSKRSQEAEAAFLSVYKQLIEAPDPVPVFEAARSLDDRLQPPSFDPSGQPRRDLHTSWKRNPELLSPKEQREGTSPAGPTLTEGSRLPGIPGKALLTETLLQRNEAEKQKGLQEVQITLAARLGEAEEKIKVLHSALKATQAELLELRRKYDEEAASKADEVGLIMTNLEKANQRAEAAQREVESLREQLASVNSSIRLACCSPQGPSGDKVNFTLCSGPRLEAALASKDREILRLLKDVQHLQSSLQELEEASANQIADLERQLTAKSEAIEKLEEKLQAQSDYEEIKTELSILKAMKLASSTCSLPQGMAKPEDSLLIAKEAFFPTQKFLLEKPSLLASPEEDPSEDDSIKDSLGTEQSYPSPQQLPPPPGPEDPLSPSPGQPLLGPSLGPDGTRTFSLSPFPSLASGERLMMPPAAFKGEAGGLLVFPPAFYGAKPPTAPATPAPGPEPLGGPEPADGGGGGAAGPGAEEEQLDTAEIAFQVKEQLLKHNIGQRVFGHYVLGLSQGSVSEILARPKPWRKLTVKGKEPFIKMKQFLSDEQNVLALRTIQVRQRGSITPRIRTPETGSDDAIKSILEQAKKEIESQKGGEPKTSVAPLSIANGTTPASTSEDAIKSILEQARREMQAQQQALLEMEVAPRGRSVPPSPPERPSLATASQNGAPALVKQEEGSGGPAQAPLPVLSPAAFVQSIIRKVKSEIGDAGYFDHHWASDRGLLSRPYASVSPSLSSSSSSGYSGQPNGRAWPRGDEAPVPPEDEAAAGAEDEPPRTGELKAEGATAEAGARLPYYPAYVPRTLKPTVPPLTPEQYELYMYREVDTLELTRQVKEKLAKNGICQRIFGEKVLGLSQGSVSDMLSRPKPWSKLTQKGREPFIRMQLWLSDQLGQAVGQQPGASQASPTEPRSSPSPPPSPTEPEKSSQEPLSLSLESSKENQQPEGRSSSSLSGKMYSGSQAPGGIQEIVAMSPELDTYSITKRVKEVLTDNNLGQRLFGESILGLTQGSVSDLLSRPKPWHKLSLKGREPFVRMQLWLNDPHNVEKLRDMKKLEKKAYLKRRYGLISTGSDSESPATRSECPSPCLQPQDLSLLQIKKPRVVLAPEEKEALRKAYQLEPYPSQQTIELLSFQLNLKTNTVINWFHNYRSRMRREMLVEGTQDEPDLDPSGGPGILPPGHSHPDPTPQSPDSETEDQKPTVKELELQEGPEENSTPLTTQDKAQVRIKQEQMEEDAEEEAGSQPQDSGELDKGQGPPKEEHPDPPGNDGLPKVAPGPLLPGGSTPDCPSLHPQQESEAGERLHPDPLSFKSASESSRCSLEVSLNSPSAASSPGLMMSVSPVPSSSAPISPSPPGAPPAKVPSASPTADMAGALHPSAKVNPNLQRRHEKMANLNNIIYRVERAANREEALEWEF
# UniProt O15131, whole entry: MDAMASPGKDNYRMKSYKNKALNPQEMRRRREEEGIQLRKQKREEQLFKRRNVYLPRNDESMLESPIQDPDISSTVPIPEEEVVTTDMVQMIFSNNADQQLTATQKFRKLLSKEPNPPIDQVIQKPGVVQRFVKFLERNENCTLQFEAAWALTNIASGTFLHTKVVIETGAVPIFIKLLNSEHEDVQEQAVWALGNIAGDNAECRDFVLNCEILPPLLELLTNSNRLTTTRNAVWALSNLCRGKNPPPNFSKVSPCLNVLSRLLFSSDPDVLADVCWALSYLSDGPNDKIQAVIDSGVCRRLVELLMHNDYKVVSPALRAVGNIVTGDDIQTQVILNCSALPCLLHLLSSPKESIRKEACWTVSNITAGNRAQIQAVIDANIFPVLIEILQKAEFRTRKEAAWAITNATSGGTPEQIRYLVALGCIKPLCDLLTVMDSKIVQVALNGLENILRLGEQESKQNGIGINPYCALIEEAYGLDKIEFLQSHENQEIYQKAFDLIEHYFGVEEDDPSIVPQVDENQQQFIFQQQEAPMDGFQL
# UniProt O14777: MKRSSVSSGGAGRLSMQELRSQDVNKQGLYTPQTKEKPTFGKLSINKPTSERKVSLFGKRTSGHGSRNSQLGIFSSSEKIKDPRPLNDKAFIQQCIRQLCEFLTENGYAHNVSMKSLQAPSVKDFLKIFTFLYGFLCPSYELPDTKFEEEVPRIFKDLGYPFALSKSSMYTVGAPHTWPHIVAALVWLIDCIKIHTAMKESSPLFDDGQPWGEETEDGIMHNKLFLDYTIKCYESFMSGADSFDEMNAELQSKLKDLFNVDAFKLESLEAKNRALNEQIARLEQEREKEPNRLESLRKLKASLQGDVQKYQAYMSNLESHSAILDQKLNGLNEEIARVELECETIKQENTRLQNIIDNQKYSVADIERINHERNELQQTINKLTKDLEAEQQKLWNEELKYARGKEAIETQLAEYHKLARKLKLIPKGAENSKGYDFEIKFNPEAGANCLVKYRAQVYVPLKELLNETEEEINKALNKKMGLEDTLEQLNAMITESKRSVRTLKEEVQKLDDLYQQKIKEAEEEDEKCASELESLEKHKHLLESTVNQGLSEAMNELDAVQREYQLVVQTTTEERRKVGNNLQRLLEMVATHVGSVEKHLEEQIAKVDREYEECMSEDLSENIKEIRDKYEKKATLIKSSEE
# UniProt O15049: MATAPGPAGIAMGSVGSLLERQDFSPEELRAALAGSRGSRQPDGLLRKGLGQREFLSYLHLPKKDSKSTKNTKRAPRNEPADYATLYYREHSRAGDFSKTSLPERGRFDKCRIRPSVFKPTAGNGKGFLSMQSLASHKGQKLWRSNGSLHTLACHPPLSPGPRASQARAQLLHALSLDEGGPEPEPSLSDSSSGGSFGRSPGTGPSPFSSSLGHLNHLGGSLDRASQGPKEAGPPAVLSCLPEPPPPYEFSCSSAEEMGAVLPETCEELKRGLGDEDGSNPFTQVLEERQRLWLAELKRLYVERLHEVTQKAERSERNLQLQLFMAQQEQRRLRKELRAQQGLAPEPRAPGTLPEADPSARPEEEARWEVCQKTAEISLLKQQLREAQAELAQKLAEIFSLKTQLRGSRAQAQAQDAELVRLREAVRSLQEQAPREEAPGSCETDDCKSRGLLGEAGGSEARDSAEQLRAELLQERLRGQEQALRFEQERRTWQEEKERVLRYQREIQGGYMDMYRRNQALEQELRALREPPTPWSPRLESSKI
# UniProt A8MWY0: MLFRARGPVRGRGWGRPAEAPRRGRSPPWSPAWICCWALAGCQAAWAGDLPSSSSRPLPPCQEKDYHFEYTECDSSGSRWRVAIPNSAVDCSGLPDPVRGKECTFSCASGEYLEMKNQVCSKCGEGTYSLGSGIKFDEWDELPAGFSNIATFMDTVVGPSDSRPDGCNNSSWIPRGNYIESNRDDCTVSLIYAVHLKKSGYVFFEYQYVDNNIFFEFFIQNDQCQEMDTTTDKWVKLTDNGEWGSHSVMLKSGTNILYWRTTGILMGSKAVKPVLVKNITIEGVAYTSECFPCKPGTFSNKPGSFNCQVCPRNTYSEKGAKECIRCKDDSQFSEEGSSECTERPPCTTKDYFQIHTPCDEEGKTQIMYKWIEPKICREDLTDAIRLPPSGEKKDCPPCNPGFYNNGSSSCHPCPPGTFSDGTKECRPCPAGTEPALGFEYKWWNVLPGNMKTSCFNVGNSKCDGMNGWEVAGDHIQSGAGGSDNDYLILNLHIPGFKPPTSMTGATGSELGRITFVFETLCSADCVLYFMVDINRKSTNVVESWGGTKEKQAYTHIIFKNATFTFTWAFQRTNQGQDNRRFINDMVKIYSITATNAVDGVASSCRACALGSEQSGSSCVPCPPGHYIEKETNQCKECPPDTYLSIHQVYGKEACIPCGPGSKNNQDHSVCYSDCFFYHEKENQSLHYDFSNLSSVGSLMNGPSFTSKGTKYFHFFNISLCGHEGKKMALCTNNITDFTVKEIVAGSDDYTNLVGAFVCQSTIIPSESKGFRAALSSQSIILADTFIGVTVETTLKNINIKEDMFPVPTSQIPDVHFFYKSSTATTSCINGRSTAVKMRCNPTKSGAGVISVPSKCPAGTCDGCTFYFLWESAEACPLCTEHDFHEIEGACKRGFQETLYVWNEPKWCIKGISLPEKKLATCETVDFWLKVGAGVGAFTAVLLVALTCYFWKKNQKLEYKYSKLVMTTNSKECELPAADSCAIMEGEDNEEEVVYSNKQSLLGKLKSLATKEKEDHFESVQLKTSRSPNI
# UniProt O14717: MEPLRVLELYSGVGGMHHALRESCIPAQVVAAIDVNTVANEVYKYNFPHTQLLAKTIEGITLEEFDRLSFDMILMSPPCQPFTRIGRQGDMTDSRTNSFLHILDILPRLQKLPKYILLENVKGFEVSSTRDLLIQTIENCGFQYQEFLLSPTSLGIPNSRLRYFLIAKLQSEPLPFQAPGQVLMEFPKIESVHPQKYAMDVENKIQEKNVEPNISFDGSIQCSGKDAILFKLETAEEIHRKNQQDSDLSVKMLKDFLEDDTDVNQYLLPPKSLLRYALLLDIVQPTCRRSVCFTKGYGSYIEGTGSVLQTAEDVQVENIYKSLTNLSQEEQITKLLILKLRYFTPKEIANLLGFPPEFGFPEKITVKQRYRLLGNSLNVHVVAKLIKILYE
# The list shows a part of the results. Most entries show no effect beyond the scatter of the controls.
# Compound: Cc1nc(Nc2ncc(C(=O)Nc3c(C)cccc3Cl)s2)cc(N2CCN(CCO)CC2)n1 [dasatinib]
# Assay: log2 fold change of tryptic peptide abundance, ligand vs vehicle (limited proteolysis) (log2 ratio); higher = more trypsin-susceptible (destabilized)
# Conditions: ligand concentration: 5 uM; sample: K562 cleared lysate
row,Target,log2 fold change
1,"CDK2AP1 (peptide sequence: EIRPTYAGSK, peptide start residue: 87) (UniProt O14519)",0.0273
2,"DFFA (peptide sequence: ASPPGDLQNPKR, peptide start residue: 314) (UniProt O00273)",-0.174
3,"UniProt H3BQB6 (peptide sequence: MEAAEERR, peptide start residue: 173)",-0.87
4,"MAGEB2 (peptide sequence: EHFPEILK, peptide start residue: 147) (UniProt O15479)",-0.215
5,"YDJC (peptide sequence: HSIPTGLHANLSEGRPVGPAR, peptide start residue: 56) (UniProt A8MPS7)",-0.132
6,"ITGB1BP1 (peptide sequence: SSTVASLDTDSTK, peptide start residue: 36) (UniProt O14713)",0.322
7,"ATOX1 (peptide sequence: YDIDLPNK, peptide start residue: 31) (UniProt O00244)",0.334
8,"TRIM38 (peptide sequence: APFHMDSLRPNK, peptide start residue: 64) (UniProt O00635)",0.17
9,"UniProt B7Z6K7 (peptide sequence: GSVEEALFAKR, peptide start residue: 149)",0.673
10,"OGT (peptide sequence: MLSFQGLAELAHR, peptide start residue: 18) (UniProt O15294)",0.53
11,"ZBTB7B (peptide sequence: QLGHLCDLTIR, peptide start residue: 29) (UniProt O15156)",0.508
12,"CLGN (peptide sequence: GVLEQEEKEEK, peptide start residue: 517) (UniProt O14967)",-0.08
13,"UniProt O14529 (peptide sequence: VVLAPEEK, peptide start residue: 1249)",0.275
14,"CHD2 (peptide sequence: FTEFDAR, peptide start residue: 1485) (UniProt O14647)",0.27
15,"WASL (peptide sequence: KVEQNSRPVSCSGR, peptide start residue: 421) (UniProt O00401)",-0.182
16,"P4HA2 (peptide sequence: RLLSLDPSHER, peptide start residue: 232) (UniProt O15460)",-0.266
17,"UniProt O14972 (peptide sequence: SVELQLVR, peptide start residue: 208)",-0.136
18,"UniProt D6REC4 (peptide sequence: QRVEQQK, peptide start residue: 379)",-0.207
19,"KPNA5 (peptide sequence: LLSKEPNPPIDQVIQKPGVVQR, peptide start residue: 110) (UniProt O15131)",-0.23
20,"PHYH (peptide sequence: NLVPDADIQR, peptide start residue: 71) (UniProt O14832)",0.045
21,"NDC80 (peptide sequence: EEVQKLDDLYQQK, peptide start residue: 505) (UniProt O14777)",0.744
22,"SOCS2 (peptide sequence: EAPEGTFLIR, peptide start residue: 64) (UniProt O14508)",-0.0891
23,"N4BP3 (peptide sequence: APGTLPEADPSARPEEEAR, peptide start residue: 349) (UniProt O15049)",0.696
24,"PPM1G (peptide sequence: CSGDGVGAPR, peptide start residue: 13) (UniProt O15355)",0.138
25,"KIAA1324L (peptide sequence: KNQKLEYK, peptide start residue: 952) (UniProt A8MWY0)",0.144
26,"TRDMT1 (peptide sequence: LETAEEIHRK, peptide start residue: 232) (UniProt O14717)",0.41
27,"MRPS12 (peptide sequence: KLGPTEGRPQLK, peptide start residue: 48) (UniProt O15235)",0.0528

# Retrieved one by one from above, two records:
row,Target,log2 fold change
26,"TRDMT1 (peptide sequence: LETAEEIHRK, peptide start residue: 232) (UniProt O14717)",0.41
14,"CHD2 (peptide sequence: FTEFDAR, peptide start residue: 1485) (UniProt O14647)",0.27
